Experimental findings from US20220042018, “APTAMERS AND THE USE THEREOF IN THE TREATMENT OF CANCER” (FUNDACIÓn PARA LA INVESTIGACIÓn BIOMÉDICA …, published 2022) are described below.

Series [1] relates to MNK1aΔ77 (MNK1a deletion mutant). Kind of series: ELONA. The note with it: 20 nM aptamer, binding not significant; recognised in denaturing apta-western (FIG. 6A); purified recombinant protein; protein details: GST fusion; label: biotin; folded or branched DNA; variant of apMNK2FT.
Series [2] concerns MNK1ΔCt (MNK1 C-terminal deletion mutant). Kind of series: ELONA. Particulars: 20 nM aptamer, binding not significant; recognised in denaturing apta-western (FIG. 6A); purified recombinant protein; protein details: GST fusion; label: biotin; folded or branched DNA; variant of apMNK2FT.

The exact form of at least one protein or probe is not confirmed. Negatives hold for the conditions tested.

TGGGGTGGGCGGGCGGGGGTGGGGGTGGT [apMNKQ2]: the binding result in series [1] and in series [2] was “no binding” in each case.
